Measurements taken from PubChem BioAssay AID485298 (National Center for Advancing Translational Sciences (NCATS), 2010).
The campaign covered roughly 320,000 compounds. About 740 (0.23%) were called active. The shares of active, inactive and inconclusive entries below differ from those in the screen. Calls follow the shape of the dose curve; as a rule, active = well fitted activation curve with a large enough effect; inconclusive = small, poorly fitted or top-dose-only effect; inactive = no such curve, though single readings can be large or run the other way. Potencies beside an inconclusive call are fits to weak or partial responses and may not hold up.
Potency is read from the fitted curve at half-maximal effect.

Experiment: qHTS Assay for Small Molecule Inhibitors of Mitochondrial Division or Activators of Mitochondrial Fusion; also: nearly all actives have a fitted effect of over 45% in size; as to growth rescue (activation): % of control where 0% means no effect
Conditions: S. cerevisiae fusion-defective mutant growth rescue, CellTiterGlo 48 h; growth rescue (activation): at 46.1 µM (top of the series) unless noted
Method in brief: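 S. cerevisiae fusion-defective temperature-sensitive mutants (e.g. fzo1-1, mgm1-5) grown 48 h at 37C in YPEG (ethanol/glycerol non-fermentable) medium with 23 nl compound per well; growth rescue read as CellTiterGlo luminescence.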
With `COc1ccc(-c2nn(-c3ccccc3)cc2C(=O)Nc2nccs2)cc1OC` the Potency was inconclusive: 20 µM [activator, single point].
For `CC(=O)c1ccc(NC(=O)c2ccc3nc(-c4ccco4)c(-c4ccco4)nc3c2)cc1`, the “growth rescue (activation)” value was inactive: -0.937%.
In the case of `CC(=O)c1c(C)[nH]c(C2=NNC(=NCc3ccccc3)SC2)c1C`, the Potency is reported as inconclusive: 22.4 µM [activator, single point].
For `CCOC(=O)c1c(C)[nH]c(C(=O)N/N=C/c2ccc(Br)cc2)c1C`, the “growth rescue (activation)” value was inactive: 3%.
For `CC(=O)c1cccc(NC(=O)COC(=O)c2cccs2)c1`, the Potency was inconclusive: 11.2 µM [activator, partial curve, poor fit].
With `CN(C)NC(=S)Nc1ccc2nc(-c3ccccn3)c(-c3ccccn3)nc2c1` the “growth rescue (activation)” value was inactive: 2.23%.
For `COCCCNC(=O)CSc1nc2ccccc2c(=O)n1CCC(=O)NCCc1ccc(OC)c(OC)c1`, the Potency was inconclusive: 12.6 µM [activator, partial curve].
For `O=C1CSC(c2cn(-c3ccccc3)nc2-c2ccccc2)N1Cc1ccco1` (stereo unspecified), the Potency was inconclusive: 31.6 µM [activator, single point].
With `O=C(c1ccccc1OCc1ccc(Cl)cc1)N1CCN(c2ccccn2)CC1` the Potency was inconclusive: 12.6 µM [activator, single point].
In the case of `OC1CCN(c2c3c(nc4cc(-c5cccc(F)c5)nn24)CCCC3)CC1`, the Potency is reported as inconclusive: 15.8 µM [activator, partial curve].
For `Cc1cccn2c(=O)c(C=C(C#N)C#N)c(N3CCN(c4cccc(Cl)c4)CC3)nc12`, the Potency was inconclusive: 11.2 µM [activator, partial curve].
In the case of `O=C(O)c1cn(Cc2ccccc2)c2ccc(Cl)cc2c1=O`, the “growth rescue (activation)” value is reported as inactive: 4.96%.
In the case of `CCn1c2ccccc2c2cc(NC(=O)c3cccc(OC)c3OC)ccc21`, the Potency is reported as inconclusive: 25.1 µM [activator, single point].
With `Nc1nc(-c2ccccc2)c(N=Nc2ccccc2Cl)s1` the Potency was inconclusive: 10 µM [activator, partial curve].
In the case of `C#Cc1ccc([C@H]2C=C(C(=O)Nc3ccccc3)O[C@@H](OCc3ccc(CO)cc3)C2)cc1`, the Potency is reported as inconclusive: 11.2 µM [activator, partial curve].
With `COc1cccc(/C=N/Nc2snc(SC)c2C#N)c1O` the Potency was active: 5.01 µM.
In the case of `O=C(N1CCN(c2ccccn2)CC1)N1c2ccccc2Sc2ccccc21`, the Potency is reported as active: 11.2 µM.
In the case of `COc1ccc2c(=O)c3c(=O)n(Cc4ccco4)c(-c4ccccc4)nc3oc2c1`, the Potency is reported as inconclusive: 12.6 µM [activator, partial curve].
For `COc1ccc(/C=C/c2ccc3ccccc3[n+]2C)cc1OC`, the Potency was inconclusive: 1.26 µM [activator, partial curve].
For `Cc1nc2ccc(-c3nc4cc(N)ccc4o3)cc2[nH]1`, the “growth rescue (activation)” value was inactive: 1.58%.
With `Cc1nn(C)cc1S(=O)(=O)N1CCCC(C(=O)O)C1` (stereo unspecified) the Potency was inconclusive: 6.31 µM [activator, single point].
In the case of `COc1cccc(-c2nn(-c3ccccc3)cc2C(=O)Nc2nccs2)c1`, the Potency is reported as inconclusive: 31.6 µM [activator, single point].
In the case of `O=C(Nc1ccccc1N1CCCCC1)C1CCN(C(=O)c2ccc(Cl)cc2)CC1`, the Potency is reported as inconclusive: 17.8 µM [activator, single point].
With `Cc1ccc(S(=O)(=O)CC(=O)c2ccc(C(C)(C)C)cc2)cc1` the “growth rescue (activation)” value was inactive: 0.703%.
For `CC(=O)Nc1ccc(Nc2cc(C)nc3c(-c4ccccc4)cnn23)cc1`, the Potency was active: 14.1 µM.
In the case of `CCOC(=O)c1c(C)[nH]c(C)c1C(=O)COC(=O)/C=C/c1ccc(OC(F)F)cc1`, the Potency is reported as inconclusive: 35.5 µM [activator, single point].
With `CCCN(C(=O)c1ccco1)c1nnc(-c2cccc(C)c2)s1` the “growth rescue (activation)” value was inactive: 17.9%.
In the case of `CC1CCc2[nH]c3ccc(C(=O)N(C)CC(=O)Nc4ccccc4Cl)cc3c2C1` (stereo unspecified), the Potency is reported as inconclusive: 14.1 µM [activator, single point].
With `COc1cc(NC(=O)c2ccccc2)cc(OC)c1` the “growth rescue (activation)” value was inactive: -2.54%.
With `Cc1cc(C)c2sc(N(CCN(C)C)C(=O)c3c(F)cccc3F)nc2c1` the “growth rescue (activation)” value was inactive: 12%.
In the case of `N#CC1=C(N)Nc2nc3ccccc3n2C1c1ccc(Cl)cc1` (stereo unspecified), the Potency is reported as inconclusive: 2.24 µM [activator, partial curve, poor fit].
For `CCC(=O)Nc1c(S(=O)(=O)c2ccccc2)c2nc3ccccc3nc2n1C(C)c1ccccc1` (stereo unspecified), the Potency was inconclusive: 31.6 µM [activator, single point].
For `CC(C)Nc1nc(NC(C)C)nc(OCCOC(=O)c2ccccc2)n1`, the Potency was inconclusive: 22.4 µM [activator, single point].
For `CCCCC(=O)Nc1ccc2c(c1)nc1n2CCSC1`, the Potency was inconclusive: 6.31 µM [activator, single point].
With `Cc1cccc(N2CCc3c2nc2ccc(Br)cc2c3N)c1` the Potency was inconclusive: 20 µM [activator, single point].
For `CCCCc1cc(=O)oc2cc(OS(C)(=O)=O)ccc12`, the Potency was active: 15.8 µM.
In the case of `Cc1ccc2c(c1)N(Cc1cccc(Cl)c1)C(=O)c1cccnc1O2`, the Potency is reported as inconclusive: 31.6 µM [activator, single point].
With `CCN(CC)CCCN1C=C2C(=O)C(C)(OC(=O)CCc3ccccc3)C(=O)C=C2C=C1c1ccc(C#N)cc1` (stereo unspecified) the Potency was inconclusive: 35.5 µM [activator, single point].
In the case of `O=C1Cc2ccccc2Sc2ccc(O)cc21`, the Potency is reported as active: 14.1 µM.
With `CN(Cc1ccccc1)S(=O)(=O)c1ccc(NC(=S)NC(=O)C(C)(C)C)cc1` the “growth rescue (activation)” value was inactive: -5.81%.
For `CCOC(=O)C1C(=O)C=C(c2ccc([N+](=O)[O-])cc2)CC1c1ccccc1` (stereo unspecified), the Potency was inconclusive: 17.8 µM [activator, single point].
With `CCC(=O)N1CCc2cc(S(=O)(=O)Nc3ccc4c(c3)OCCO4)ccc21` the “growth rescue (activation)” value was inactive: -2.02%.
In the case of `COc1ccc(Cl)cc1NC(=O)CN(C)C(=O)c1ccc(C)s1`, the “growth rescue (activation)” value is reported as inactive: -0.668%.
With `CC1CCCN(c2ccc(C(=O)Nc3ccc4c(c3)OCO4)cc2[N+](=O)[O-])C1` (stereo unspecified) the Potency was active: 17.8 µM.
For `NC(=S)N/N=C/c1ccc(-n2nncc2-c2ccc(Cl)cc2)cc1`, the Potency was active: 22.4 µM.
In the case of `Cc1cc(OCC(=O)C(C)(C)C)c2c(-c3ccccc3)cc(=O)oc2c1`, the Potency is reported as inconclusive: 22.4 µM [activator, single point].
